Data from PubChem BioAssay AID2685 (National Center for Advancing Translational Sciences (NCATS), 2010).
This is one part of the list. Further columns of the screen follow, without active or inactive calls. The list favours compounds with an active or inconclusive main result. Words in brackets tell the shape of the fitted curve; partial curves, single points and poor fits give uncertain potencies.

Experiment: qHTS Assay for Lipid Storage Modulators in Drosophila S3 Cells;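 as to cell number change: cells counted by Cell Tracker Red CMTPX staining in the red channel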
Conditions: BODIPY lipid droplet fluorescence, 18-24 h; for cell number change: measured here: cell count max response, cells fed with added oleic acid
How it was run: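 Drosophila S3 cells loaded with oleic acid (400 uM, as added) and compounds at several concentrations; lipid droplets imaged by 488-nm laser-scanning cytometry, 500–530 nm intensity and object ratio to cell channel. Percent activity normalized to 20 uM Triacsin C.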

[1] = measured here: cell number channel AC50, cells fed with added oleic acid
[2] = measured here: lipid fluorescence (Fed channel) AC50, cells fed with added oleic acid

Structure (SMILES)	AC50 [1]	AC50 [2]	cell number change [%]
CN(C)C(CNc1nnnn1-c1ccccc1)c1ccco1 (configuration not stated)	6.51 µM [rising, single point]	6.51 µM [rising, single point]	
CCOc1ccc(S(=O)(=O)N2CCC(C(=O)OC(C)C(=O)NC3CCCCC3C)CC2)cc1 (configuration not stated)			-17.3
COc1ccc(C(C(=O)NC2CCCCC2)N(C(=O)c2sc(C)nc2C)c2ccc(OC)cc2)cc1 (configuration not stated)		0.731 µM [rising, full curve]	4.46
O=C(CSc1ccccc1F)NC1CCS(=O)(=O)C1 (configuration not stated)		29.1 µM [falling, single point]	-30.5
CN(C)/C=C(\C=O)c1ncc(C(F)(F)F)cc1Cl		0.517 µM [falling, full curve]	-44.7
O=C(NCCCCCCNC(=O)c1ccccc1O)c1ccccc1O	16.4 µM [falling, single point]	18.4 µM [falling, single point]	-42.3
O=C(/C=C/c1ccco1)NC(=S)Nc1cccc([N+](=O)[O-])c1		32.6 µM [falling, single point]	-13.8
COc1cccc(C(=O)NC(=O)Nc2cc(C)[nH]n2)c1		7.31 µM [rising, partial curve]	19.5
O=C(c1ccccc1)c1ccc2nc(-c3ccco3)c(-c3ccco3)nc2c1		29.1 µM [falling, single point]	-28.2
O=C1CCCc2ccccc2N1Cc1cccc(Cl)c1	2.06 µM [falling, partial curve]	9.2 µM [falling, partial curve, poor fit]	-19.7
COc1ccc(-c2cc(C(F)(F)F)n3ncc(C(=O)NCc4ccco4)c3n2)cc1		0.92 µM [rising, full curve, poor fit]	-2.91
O=C(NCCc1ccccc1)c1ccc2c(c1)N(Cc1ccccc1)CCS2			-9.91
O=C(Nc1c(F)cccc1F)c1ccc2c(c1)CCN2S(=O)(=O)c1ccccc1			15.6
Cc1nn(CC(=O)N(C)C)c(=O)c2ccccc12		1.03 µM [falling, partial curve]	-9.18
O=C(COC(=O)c1cncc(Br)c1)NC1CC1	29.1 µM [falling, partial curve, poor fit]	20.6 µM [falling, partial curve]	-126
O=C(Cn1c(=O)oc2ccccc21)NC(=O)NCc1ccccc1		29.1 µM [rising, single point]	
COc1ccc(C(C(=O)NC(C)(C)C)N(CCO)C(=O)CCC(=O)Nc2cc(C)on2)cc1 (configuration not stated)		0.326 µM [falling, full curve, poor fit]	-10.3
Fc1ccc(NCc2nnc(SCc3nnc(-c4ccccc4)o3)n2Cc2ccccc2)cc1		18.4 µM [falling, single point]	-27.3
O=C(c1cccs1)N1CCCC(c2nc3c(nnn3Cc3ccccc3Cl)c(=O)[nH]2)C1 (configuration not stated)	0.517 µM [rising, partial curve, poor fit]	29.1 µM [falling, single point]	17.6
O=C(CN(Cc1ccccc1)S(=O)(=O)c1ccc(Br)cc1)NCC1CCCO1 (configuration not stated)			34.9

Structure (SMILES)	AC50 [1]	AC50 [2]	cell number change [%]
CN(C)c1ccc(NC(=O)COC(=O)CNC(=O)c2cccs2)cc1	0.92 µM [falling, full curve, poor fit]	0.00461 µM [falling, full curve, poor fit]	18.9
CC(=O)N(C)Cc1ccc(C(=O)CSc2nnc(C3CC3)n2C2CC2)cc1		0.00461 µM [rising, full curve, poor fit]	18.9
COc1ccc(C2C(C#N)=C(/N=C/N3CCN(C)CC3)OC3=C2C(=O)CC(C)(C)C3)cc1 (configuration not stated)		16.4 µM [falling, partial curve]	10.6
Cc1ccc(C(=O)NCCCc2ccccc2)c(C)c1			-3.5
CC1Cc2ccccc2N1S(=O)(=O)c1cccc(C(=O)Nc2cccnc2)c1 (configuration not stated)		9.2 µM [falling, partial curve]	-28.1
CCN1C(=O)N[C@@H](c2ccc(Br)cc2)C(C(=O)OC)=C1C			-6.89
COc1cc(-c2cc(C(=O)Nc3nc4ccccc4s3)c3ccccc3n2)cc(OC)c1OC		16.4 µM [rising, partial curve, poor fit]	20.5
CCCCOC(=O)Nc1ccc(S(=O)(=O)Nc2nccs2)cc1			17.4
O=C(OC1CCOC1=O)c1ccc(-c2nc3ccccc3s2)s1 (configuration not stated)	29.1 µM [falling, single point]	23.1 µM [falling, single point]	-38.4
Nc1nc(C(=O)N2CCOCC2)nn1S(=O)(=O)c1ccc(Cl)cc1		16.4 µM [falling, single point]	-22.7
Cc1onc(-c2ccccc2)c1C(=O)NC1CC1			16
COc1ccc(-c2cc(C(=O)NCCCN3CCOCC3)on2)cc1OC	1.84 µM [falling, single point]	29.1 µM [rising, single point]	
CCc1ccc(C(=O)COC(=O)c2cccs2)cc1		6.51 µM [falling, single point]	2.4
COc1ccccc1C(=O)NC(=O)COC(=O)CN1C(=O)NC(C)(C)C1=O			21.3
CCC(=O)NC1(C(F)(F)F)C(=O)NC(C)=C1C#N (configuration not stated)	29.1 µM [falling, single point]	29.1 µM [falling, single point]	-42
Cc1ccc2cccc(NC(=S)NC(=O)c3ccnn3C)c2n1	14.6 µM [falling, single point]	14.6 µM [falling, partial curve]	-54.5
COc1ccc(-n2c(C)cc(C(=O)CN3C(=O)NC4(CCCc5sccc54)C3=O)c2C)cc1 (configuration not stated)		0.82 µM [rising, partial curve, poor fit]	10
CN(Cc1ccccc1)c1nc2c(c(=O)[nH]c(=O)n2C)n1CCSc1nc2ccccc2[nH]1		1.16 µM [rising, full curve]	-9.85
Cc1cc(OCC(=O)OCC(=O)N2CCc3ccccc3C2)ccc1Cl		0.291 µM [falling, full curve]	-22.1
CCN(CC)CCCn1c(C)cc2c(c1=O)C(c1cc(OC)c(OC)cc1OC)C(C#N)=C(N)O2 (configuration not stated)			0.689

Structure (SMILES)	AC50 [1]	AC50 [2]	cell number change [%]
C=CCn1c(SCC(=O)c2ccc(CNC(C)=O)o2)nc2ccccc2c1=O	0.731 µM [rising, partial curve, poor fit]	2.06 µM [rising, partial curve]	19.6
CCOc1ccc2nc(SCC(=O)Nc3cccc(S(=O)(=O)NC4=NCCCCC4)c3)[nH]c2c1		0.651 µM [rising, partial curve, poor fit]	9.56
COCCNC(=O)c1cccc(OC2CCN(Cc3ccc(C(=O)OC)cc3)CC2)c1		29.1 µM [rising, single point]	-6.04
CCCN(C(=O)c1cc(Cl)nc2ccccc12)C1CCS(=O)(=O)C1 (configuration not stated)			-2.81
CCCN(CC(=O)Nc1ccccc1C)C(=O)c1ccc(N2CCCC2)c([N+](=O)[O-])c1	2.06 µM [falling, partial curve]	2.06 µM [falling, partial curve]	-3.06
CSc1ccc(/C=C(/NC(=O)c2ccco2)C(=O)N2CCCCCC2)cc1			-18.3
CCCCOc1c(Br)cc(/C=C2\N=C(C)OC2=O)cc1OCC			12.9
CCCCN(C(=O)c1cccc(S(=O)(=O)N2CCCC2)c1)c1c(N)n(CCC)c(=O)[nH]c1=O		0.13 µM [rising, full curve]	26.3
NS(=O)(=O)c1ccc(NC(=S)NNC(=O)c2ccc(Br)o2)cc1			12.4
c1ccc(CCNc2nc3ccccc3s2)cc1	18.4 µM [falling, single point]	29.1 µM [falling, single point]	-46.9
Cc1ccc2c(c1)c(/C=C/c1cc[n+](C)cc1)c(C)n2C	3.66 µM [falling, full curve]	0.731 µM [falling, full curve]	-90.1
Cc1ccccc1-n1nc(C)c2c(C(=O)NN)cc(-c3ccncc3)nc21	6.51 µM [rising, partial curve, poor fit]	1.84 µM [rising, full curve, poor fit]	40.1
CCOc1ccccc1OCCCC(=O)Nc1cccc(S(=O)(=O)N2CCOCC2)c1		0.461 µM [falling, partial curve, poor fit]	-17
CCN[C@H]1C[C@H](C)S(=O)(=O)c2sc(S(N)(=O)=O)cc21	0.164 µM [falling, full curve]	6.51 µM [falling, full curve]	-34.6
CCOC(=O)C1CCCN(C(=O)c2cc3c(=O)n4ccccc4nc3s2)C1 (configuration not stated)		2.59 µM [falling, full curve]	-23.2
Cc1ccc(C(=O)N(CC(=O)NC2CCCC2)c2ccc3c(c2)OCCO3)s1	0.092 µM [rising, full curve, poor fit]	0.13 µM [rising, partial curve, poor fit]	24.7
Cc1ccc(CCN2CC(C(=O)NCCC(C)C)CC2=O)cc1 (configuration not stated)		32.6 µM [falling, single point]	-27.2
Cc1ccc(S(=O)(=O)N2CCCCC2)cc1NS(=O)(=O)c1cccc(C(=O)O)c1	16.4 µM [rising, single point]	1.3 µM [falling, partial curve]	30.4

A second format for part of the listing above.
Structure (SMILES),AC50 [1],AC50 [2],cell number change [%]
Nc1nc(C(=O)N2CCOCC2)nn1S(=O)(=O)c1ccc(Cl)cc1,,"16.4 µM [falling, single point]",-22.7
Cc1onc(-c2ccccc2)c1C(=O)NC1CC1,,,16
COc1ccc(-c2cc(C(=O)NCCCN3CCOCC3)on2)cc1OC,"1.84 µM [falling, single point]","29.1 µM [rising, single point]",
CCc1ccc(C(=O)COC(=O)c2cccs2)cc1,,"6.51 µM [falling, single point]",2.4
COc1ccccc1C(=O)NC(=O)COC(=O)CN1C(=O)NC(C)(C)C1=O,,,21.3
CCC(=O)NC1(C(F)(F)F)C(=O)NC(C)=C1C#N (configuration not stated),"29.1 µM [falling, single point]","29.1 µM [falling, single point]",-42
Cc1ccc2cccc(NC(=S)NC(=O)c3ccnn3C)c2n1,"14.6 µM [falling, single point]","14.6 µM [falling, partial curve]",-54.5
COc1ccc(-n2c(C)cc(C(=O)CN3C(=O)NC4(CCCc5sccc54)C3=O)c2C)cc1 (configuration not stated),,"0.82 µM [rising, partial curve, poor fit]",10
CN(Cc1ccccc1)c1nc2c(c(=O)[nH]c(=O)n2C)n1CCSc1nc2ccccc2[nH]1,,"1.16 µM [rising, full curve]",-9.85
Cc1cc(OCC(=O)OCC(=O)N2CCc3ccccc3C2)ccc1Cl,,"0.291 µM [falling, full curve]",-22.1
CCN(CC)CCCn1c(C)cc2c(c1=O)C(c1cc(OC)c(OC)cc1OC)C(C#N)=C(N)O2 (configuration not stated),,,0.689
C=CCn1c(SCC(=O)c2ccc(CNC(C)=O)o2)nc2ccccc2c1=O,"0.731 µM [rising, partial curve, poor fit]","2.06 µM [rising, partial curve]",19.6
